Results taken from PMC5386455.
No constants are given. Whether binding was seen depends on the method and setting. Binding seen in cells or lysates may run through a third protein. Some results given as binding are weak or reduced against the parent protein; the word gives no strength.

The chains behind the UniProt entries cited, without tags or fusion partners.
UniProt Q8CFI0: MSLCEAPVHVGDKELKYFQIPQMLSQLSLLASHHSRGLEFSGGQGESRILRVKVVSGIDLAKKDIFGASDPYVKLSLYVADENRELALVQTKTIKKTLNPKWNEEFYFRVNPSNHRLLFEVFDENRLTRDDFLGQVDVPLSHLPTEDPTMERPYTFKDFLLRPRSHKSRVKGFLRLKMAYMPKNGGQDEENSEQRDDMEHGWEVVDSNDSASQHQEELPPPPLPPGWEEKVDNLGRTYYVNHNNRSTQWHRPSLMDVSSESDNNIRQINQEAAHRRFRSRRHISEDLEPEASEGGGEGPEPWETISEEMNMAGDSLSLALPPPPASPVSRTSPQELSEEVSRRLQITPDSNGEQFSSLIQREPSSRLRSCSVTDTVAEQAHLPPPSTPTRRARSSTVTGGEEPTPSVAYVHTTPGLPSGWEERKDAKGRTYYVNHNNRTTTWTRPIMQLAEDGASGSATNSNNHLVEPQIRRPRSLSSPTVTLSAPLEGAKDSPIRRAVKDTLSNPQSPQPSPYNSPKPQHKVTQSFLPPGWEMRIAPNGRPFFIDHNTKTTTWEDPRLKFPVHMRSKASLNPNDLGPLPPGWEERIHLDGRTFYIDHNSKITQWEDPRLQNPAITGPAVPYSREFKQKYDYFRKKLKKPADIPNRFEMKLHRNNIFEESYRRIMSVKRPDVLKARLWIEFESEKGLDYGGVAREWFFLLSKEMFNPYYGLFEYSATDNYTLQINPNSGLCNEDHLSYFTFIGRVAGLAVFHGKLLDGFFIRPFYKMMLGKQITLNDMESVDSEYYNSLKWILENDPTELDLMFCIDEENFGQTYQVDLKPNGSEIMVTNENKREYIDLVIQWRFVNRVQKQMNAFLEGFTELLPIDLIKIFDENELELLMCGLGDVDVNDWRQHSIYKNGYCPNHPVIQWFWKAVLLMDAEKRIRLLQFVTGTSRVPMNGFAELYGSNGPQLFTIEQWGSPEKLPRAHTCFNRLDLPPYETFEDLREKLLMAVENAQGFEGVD
UniProt P43006: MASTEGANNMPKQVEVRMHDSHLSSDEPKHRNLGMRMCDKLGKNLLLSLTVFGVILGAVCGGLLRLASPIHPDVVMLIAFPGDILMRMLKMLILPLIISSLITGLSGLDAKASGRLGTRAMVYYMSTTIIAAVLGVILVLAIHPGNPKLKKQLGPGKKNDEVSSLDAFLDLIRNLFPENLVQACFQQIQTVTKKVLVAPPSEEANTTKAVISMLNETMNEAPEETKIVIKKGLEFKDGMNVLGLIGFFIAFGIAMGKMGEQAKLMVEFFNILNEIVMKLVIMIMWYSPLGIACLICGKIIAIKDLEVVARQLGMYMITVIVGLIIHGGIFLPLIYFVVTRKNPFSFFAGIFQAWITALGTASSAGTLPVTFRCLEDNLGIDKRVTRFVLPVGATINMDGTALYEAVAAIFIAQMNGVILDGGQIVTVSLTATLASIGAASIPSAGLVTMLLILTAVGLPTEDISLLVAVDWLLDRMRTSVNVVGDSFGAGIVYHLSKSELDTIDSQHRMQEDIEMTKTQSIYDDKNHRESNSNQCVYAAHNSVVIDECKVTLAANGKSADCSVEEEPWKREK

T1: caveolin-1, endogenous in primary astrocytes (not stated (endogenous in primary cortical astrocytes)) (UniProt P49817)
T1 sequence: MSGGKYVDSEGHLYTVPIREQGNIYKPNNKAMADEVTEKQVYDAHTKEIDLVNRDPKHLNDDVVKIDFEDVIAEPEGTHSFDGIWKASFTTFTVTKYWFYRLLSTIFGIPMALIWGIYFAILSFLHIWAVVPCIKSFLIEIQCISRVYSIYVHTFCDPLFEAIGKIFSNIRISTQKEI


How the values were obtained:
[1] = target: Nedd4-2, endogenous in mouse midbrain (mouse (endogenous in C57BL/6 midbrain)) (UniProt Q8CFI0); assay: co-IP; midbrain lysates of C57BL/6 mice in RIPA buffer, mice given saline or MPTP for 5 days and killed 3 days after the last injection; protein A/G agarose, Western blot; capture antibody not told
[2] = target: T1, caveolin-1, endogenous in primary astrocytes (not stated (endogenous in primary cortical astrocytes)); assay: co-IP; lysates of primary astrocytes in ice-cold RIPA buffer; capture antibody (anti-Nedd4-2, anti-GLT-1 or anti-caveolin-1) overnight at 4 °C, protein A/G agarose 4 h, four washes with RIPA, Western blot; cells untreated or treated with MPP+ (1 mM) or PMA for 24 or 48 h; normal IgG as negative control
[3] = target: glutamate transporter-1 (GLT-1), endogenous in primary astrocytes (not stated (endogenous in primary cortical astrocytes)) (UniProt P43006); assay: as above
[4] = target: Nedd4-2 (neuronal precursor cell expressed developmentally down-regulated 4-2), endogenous in primary astrocytes (not stated (endogenous in primary cortical astrocytes)) (UniProt Q8CFI0); assay: as above

Molecule | binding [2] | binding [3] | binding [4] | binding [1]
GLT-1, endogenous in mouse midbrain (from UniProt P43006 1-572) | – | – | – | binds
GLAST, endogenous in mouse midbrain (protein, UniProt P56564 1-543) MTKSNGEEPRMGGRMERLQQGVRKRTLLAKKKVQSLTKEDVKSYLFRNAFVLLTVTAVIVGTILGFALRPYKMSYREVKYFSFPGELLMRMLQMLVLPLIISSLVTGMAALDSKASGKMGMRAVVYYMTTTIIAVVIGIIIVIIIHPGKGTKENMYREGKIVQVTAADAFLDLIRNMFPPNLVEACFKQFKTSYEKRSFKVPIQSNETLLGAVINNVSEAMETLTRIREEMVPVPGSVNGVNALGLVVFSMCFGFVIGNMKEQGQALREFFDSLNEAIMRLVAVIMWYAPLGILFLIAGKIVEMEDMGVIGGQLAMYTVTVIVGLLIHAVIVLPLLYFLVTRKNPWVFIGGLLQALITALGTSSSSATLPITFKCLEENNGVDKRITRFVLPVGATINMDGTALYEALAAIFIAQVNNFDLNFGQIITISITATAASIGAAGIPQAGLVTMVIVLTSVGLPTDDITLIIAVDWFLDRLRTTTNVLGDSLGAGIVEHLSRHELKNRDVEMGNSVIEENEMKKPYQLIAQDNEPEKPVADSETKM | – | – | – | binds
glutamate/aspartate transporter (GLAST), endogenous in primary astrocytes (protein, UniProt P56564 1-543) MTKSNGEEPRMGGRMERLQQGVRKRTLLAKKKVQSLTKEDVKSYLFRNAFVLLTVTAVIVGTILGFALRPYKMSYREVKYFSFPGELLMRMLQMLVLPLIISSLVTGMAALDSKASGKMGMRAVVYYMTTTIIAVVIGIIIVIIIHPGKGTKENMYREGKIVQVTAADAFLDLIRNMFPPNLVEACFKQFKTSYEKRSFKVPIQSNETLLGAVINNVSEAMETLTRIREEMVPVPGSVNGVNALGLVVFSMCFGFVIGNMKEQGQALREFFDSLNEAIMRLVAVIMWYAPLGILFLIAGKIVEMEDMGVIGGQLAMYTVTVIVGLLIHAVIVLPLLYFLVTRKNPWVFIGGLLQALITALGTSSSSATLPITFKCLEENNGVDKRITRFVLPVGATINMDGTALYEALAAIFIAQVNNFDLNFGQIITISITATAASIGAAGIPQAGLVTMVIVLTSVGLPTDDITLIIAVDWFLDRLRTTTNVLGDSLGAGIVEHLSRHELKNRDVEMGNSVIEENEMKKPYQLIAQDNEPEKPVADSETKM | – | – | binds | –
caveolin-1, endogenous in primary astrocytes (protein, UniProt P49817 1-178) MSGGKYVDSEGHLYTVPIREQGNIYKPNNKAMADEVTEKQVYDAHTKEIDLVNRDPKHLNDDVVKIDFEDVIAEPEGTHSFDGIWKASFTTFTVTKYWFYRLLSTIFGIPMALIWGIYFAILSFLHIWAVVPCIKSFLIEIQCISRVYSIYVHTFCDPLFEAIGKIFSNIRISTQKEI | – | binds | binds | –

More lines, main results first:

binding [2] | binding [3] | binding [4] | Molecule | binding [1]
binds | binds | – | Nedd4-2 (neuronal precursor cell expressed developmentally down-regulated 4-2), endogenous in primary astrocytes (from UniProt Q8CFI0 1-1004) (enzyme) | –
binds | – | binds | glutamate transporter-1 (GLT-1), endogenous in primary astrocytes (from UniProt P43006 1-572) | –
